64 compounds from PubChem BioAssay AID493014 (National Center for Advancing Translational Sciences (NCATS), 2011) can be followed below.

The other results are listed elsewhere or left out. Shown are side measurements of this screen, not its main read-out; they come without a call. Compounds called inactive in the main read-out are mostly missing here. Potencies come from curve fits of mixed quality, noted in brackets.

A short description of this test: qHTS Assay to Find Inhibitors of Chronic Active B-Cell Receptor Signaling. To be noted: ABC-DLBCL IkBa-CBG/CBR reporter, luminescence ratio (green luciferase fused to IkBa over red control in TMD8 lymphoma cells), 4 h. The gist of the method:
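Concentration-response series (up to 46 uM) were applied to TMD8 dual-reporter cells for 4 h at 37C with doxycycline. Green/red ratio, after filter-overlap correction, defined %Activity; red signal alone was normalised to basal cells and zero luminescence.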
(In qHTS, concentration-response curves come from the screen itself.)

The mark [1] stands for this setting: measured here: CBR red luminescence, cell number.
The mark [2] stands for this setting: measured here: IkBa-CBG green luminescence.

In the case of `O=C(CNC1CCCCC1)NN=C(c1ccccc1)c1ccccc1`, the AC50 (in general, the concentration at which the activity in the assay is half-maximal) under setting [1] was 20 µM [falling, single point].

Take `CCOC(=O)c1c(CSc2ccc(CC)cc2)oc2ccc(O)c(CN(C)C)c12`: under setting [1], the half-maximal activity concentration (AC50) is 12.6 µM [falling, single point].

As for `O=S(=O)(/N=C(/Nc1cccc2ccccc12)c1ccccc1)c1cccs1`, the AC50 under setting [1] is 29.1 µM [falling, single point].

Consider `Cc1cc(C(=O)N/N=C2\CC(=O)c3ccccc32)c(C)n1-c1ccccc1`, for which the AC50 under setting [1] is 5.62 µM [rising, single point].

Consider `O=C1C(=O)N(CCN2CCOCC2)C(c2ccc(Cl)c(Cl)c2)/C1=C(/O)c1ccc2c(c1)OCO2` (stereo not drawn), for which the AC50 under setting [1] is 22.4 µM [falling, single point].

With `S=C(NC1CCCCCC1)NC1CCCC1`, under setting [1], the AC50 was 14.1 µM [rising, single point].

Take `NS(=O)(=O)c1ccc(CCNC(=O)c2ccc[nH]c2=S)cc1`: under setting [1], the half-maximal activity concentration (AC50) is 8.91 µM [rising, partial curve].

`Cc1cccc(C(=O)Nc2nc3ccc(S(C)(=O)=O)cc3s2)c1`: under setting [1], the AC50 was 22.4 µM [falling, single point].

Consider `Cn1c(SCc2cccc(F)c2)nnc1-c1ccncc1`, for which the AC50 under setting [1] was 0.447 µM [rising, full curve, poor fit].

For the compound `O=C(COc1ccccc1)Nc1ccc(OC(F)(F)C(F)F)c(NC(=O)COc2ccccc2)c1`, the AC50 under setting [1] is 14.6 µM [rising, single point].

As to `Cc1nc2c3cc(F)ccc3n(Cc3ccccc3F)c2s1`, the AC50 under setting [1] was 23.1 µM [rising, single point].

Regarding `CCN1C(=NCCc2cccs2)N[C@@H](CCc2ccccc2)[C@H](C(=O)NCCc2cccs2)[C@H]1C`, the AC50 under setting [1] was 35.5 µM [falling, single point].

Take `O=C(COC(=O)c1c(Cl)cccc1Cl)NCc1cccs1`: the half-maximal activity concentration (AC50) under setting [1] is 2.59 µM [rising, full curve].

Regarding `O=C(Nc1cccc2ccccc12)c1ccc(F)cc1`, the AC50 under setting [1] was 10 µM [falling, partial curve, poor fit].

For the compound `Cc1ccsc1/C=N/N1CCOCC1`, under setting [1], the AC50 was 31.6 µM [rising, single point].

As for `COc1ccc(/C=C2\Sc3ccc(C(=O)N4CCc5ccccc5C4)cc3N(C)C2=O)cc1`, the half-maximal activity concentration (AC50) under setting [1] is 29.1 µM [rising, single point].

Take `COc1cccc(C(NC(=O)c2ccccc2F)NC(=O)c2ccccc2F)c1`: the AC50 under setting [1] is 8.91 µM [rising, partial curve].

Take `CCN(CC)S(=O)(=O)c1ccc(NC(=O)COC(=O)c2ccc(-n3nc(C)cc3C)cc2)cc1`: the half-maximal activity concentration (AC50) under setting [1] is 4.11 µM [falling, single point].

`CC(C)N(C(=O)c1sc2cc([N+](=O)[O-])ccc2c1Cl)C(C)C`: under setting [1], the AC50 was 4.61 µM [falling, single point].

As for `O=C(O)C1C2C=CC(C2)C1C(=O)Nc1cccc(C(=O)N2CCCCC2)c1` (stereo not drawn), the AC50 under setting [1] was 0.184 µM [falling, full curve, poor fit].

On to `C/C(=N\Nc1ccc(F)cc1F)c1cccs1`, for which the AC50 under setting [1] is 15.8 µM [rising, single point].

For the compound `Cn1c(=O)c2c(ncn2CCC(=O)N/N=C/c2ccccc2)n(C)c1=O`, the half-maximal activity concentration (AC50) under setting [1] was 35.5 µM [rising, single point].

Consider `O=C(c1ccc(Cl)cc1)C(CN1CCCC1)c1ccccc1` (stereo not drawn), for which, under setting [1], the concentration at half-maximal activity (AC50) is 12.6 µM [falling, partial curve].

As to `COc1cc(CNCCNC(=O)c2nonc2N)ccc1OCc1ccc(Cl)cc1`, the AC50 under setting [1] was 35.5 µM [falling, single point].

On to `COc1cc(S(=O)(=O)N2CCN=C2c2ccccc2)ccc1Cl`, for which the concentration at half-maximal activity (AC50) under setting [1] was 35.5 µM [rising, single point].

For the compound `O=C(NCc1ccc(Cl)cc1)C1CCN(c2nnc(N3CCCC3=O)s2)CC1`, under setting [1], the AC50 is 35.5 µM [rising, single point].

As for `CCC(C)NC(=O)CSc1nnc(-c2cc(-c3ccc(C)cc3)nc3ccccc23)n1N` (stereo not drawn), the half-maximal activity concentration (AC50) under setting [1] was 23.1 µM [falling, single point].

Take `Cc1ccc(C2=NOC(=O)/C2=C\C=C\c2ccccc2)cc1`: the AC50 under setting [1] was 11.2 µM [falling, single point].

As for `Cc1cccc(NC(=O)COC(=O)[C@@H]2CCCN2C(=O)c2cccs2)c1`, the AC50 under setting [1] was 5.17 µM [rising, full curve, poor fit].

With `O=C(O)CSc1nc2ccccc2n1C1CCCCC1`, the AC50 under setting [1] was 35.5 µM [rising, single point].

With `CC(C)CCNC(=O)c1cc2c(=O)[nH]c3ccccc3c2s1`, the AC50 under setting [1] was 0.0891 µM [rising, full curve, poor fit].

Take `Cc1cc2oc(=O)c(CC(=O)NCCCN(C)C)c(C)c2c2occ(C(C)(C)C)c12`: the half-maximal activity concentration (AC50) under setting [1] is 17.8 µM [falling, partial curve, poor fit].

For the compound `CCC(C)c1ccccc1N1CC(C(=O)Nc2ccc(N3CCOCC3)cc2)CC1=O` (stereo not drawn), the AC50 under setting [1] was 6.51 µM [rising, single point].

`COC(=O)c1cccc(-n2sc3ccccc3c2=O)c1`: the AC50 is 16.4 µM [falling, partial curve] under setting [1] and 32.6 µM [falling, partial curve, poor fit] under setting [2].

With `COc1ccccc1NC(=O)C(=O)c1cn(CC(=O)N2CCCC2)c2ccccc12`, under setting [1], the AC50 is 0.282 µM [falling, full curve].

As for `O=C(CN1CCN(Cc2ccc3c(c2)OCO3)CC1)Nc1ccc2c(c1)OCCO2`, the concentration at half-maximal activity (AC50) under setting [1] was 13 µM [rising, partial curve, poor fit].

`O=C(CSCc1ccco1)N1CCc2ccccc21`: the concentration at half-maximal activity (AC50) under setting [1] is 0.447 µM [rising, full curve].

On to `O=C(/C=C/c1cccs1)Nc1ccc(Br)cn1`, for which the half-maximal activity concentration (AC50) runs as follows: under setting [1], 16.4 µM [falling, partial curve]; under setting [2], 20.6 µM [falling, single point].

For the compound `CCC(C)Sc1nc2c([nH]c3ccccc32)c(=O)n1C` (stereo not drawn), the AC50 under setting [1] is 6.51 µM [rising, full curve, poor fit].

For `Cn1c(SCC(=O)OCc2ccccc2)nnc1-c1ccco1`, the concentration at half-maximal activity (AC50) reads like this: under setting [1], 2.31 µM [falling, full curve]; under setting [2], 2.91 µM [rising, full curve, poor fit].

`Cc1csc(SCC(=O)NC(C)C2CC3CCC2C3)n1` (stereo not drawn): the half-maximal activity concentration (AC50) under setting [1] was 13 µM [rising, partial curve].

Regarding `O=C(N/N=C/c1ccccn1)c1cc(C2CC2)[nH]n1`, the AC50 under setting [1] is 25.1 µM [falling, single point].

Consider `CC(=O)Nc1ccc(Nc2nc(-c3sc(NC(C)=O)nc3C)cs2)cc1`, for which the half-maximal activity concentration (AC50) under setting [1] was 11.2 µM [falling, partial curve].

Consider `O=C(Nc1ccc(O)cc1C(=O)O)c1ccc2c(c1)C(=O)N(Cc1ccco1)C2=O`, for which the AC50 under setting [1] was 29.1 µM [falling, single point].

For the compound `O=[N+]([O-])c1cccc(OCC(O)CN2CCN(S(=O)(=O)c3cc(Cl)ccc3Cl)CC2)c1` (stereo not drawn), the AC50 under setting [1] was 17.8 µM [falling, partial curve, poor fit].

As to `CCn1c(C)c(/C=N/Nc2nc3ccccc3s2)c2ccccc21`, the concentration at half-maximal activity (AC50) under setting [1] is 7.08 µM [falling, partial curve, poor fit].

Consider `CC1(C)CC(=O)C=C(Nc2ccccc2O)C1`, for which the AC50 under setting [1] is 2.51 µM [falling, partial curve, poor fit].

Turning to `Cc1csc(NC(=O)C2CCCCN2S(=O)(=O)c2ccccc2)n1` (stereo not drawn), under setting [1], the half-maximal activity concentration (AC50) is 31.6 µM [rising, single point].

Take `O=C(c1ccco1)N1CCN=C1SCc1cccc(F)c1`: the AC50 under setting [1] is 11.6 µM [falling, partial curve, poor fit].

Turning to `Cc1ccc(-c2nnc(Cc3ccc(Cl)cc3)o2)cc1`, the AC50 under setting [1] was 6.51 µM [falling, single point].

Turning to `COC(=O)c1ccc(NC(=S)NCCc2cccc(C)c2)cc1`, the concentration at half-maximal activity (AC50) under setting [1] was 2.06 µM [falling, full curve].

`COc1cc(OC)c(C2=NOC(C(=O)Nc3c(C)nn(CC(=O)N4CCCC4)c3C)C2)cc1Cl` (stereo not drawn): the AC50 under setting [1] was 10 µM [rising, partial curve].

Take `COc1ccc(Nc2nnc(Cc3ccncc3)c3ccccc23)c(OC)c1`: the concentration at half-maximal activity (AC50) under setting [1] is 4.47 µM [falling, partial curve].

For the compound `Clc1ccccc1-c1nnc2sc(-c3cccs3)nn12`, under setting [1], the concentration at half-maximal activity (AC50) is 14.1 µM [falling, single point].

`O=C(N/N=C/c1cccc2ccccc12)c1cccc(F)c1`: the half-maximal activity concentration (AC50) under setting [1] is 11.2 µM [falling, partial curve, poor fit].

In the case of `COC(=O)c1c(-c2cccc3ccccc23)csc1NC(=O)Cc1ccc(OC)c(OC)c1`, under setting [1], the AC50 was 13 µM [falling, partial curve, poor fit].

On to `N#C/C(=C\c1ccc(OCc2ccc(F)cc2)cc1)C(=O)Nc1cccc(C(=O)O)c1`, for which the half-maximal activity concentration (AC50) under setting [1] was 4.47 µM [rising, partial curve, poor fit].

`COc1ccc(C(CNC(=O)COc2ccccc2OC)N(C)C)cc1OC` (stereo not drawn): under setting [1], the AC50 was 35.5 µM [rising, single point].

Regarding `O=C(CCSc1nnc(-c2ccncc2)o1)Nc1ccc(Cl)cc1`, the AC50 under setting [1] is 3.66 µM [rising, full curve, poor fit].

As to `CC(=O)C1=C(C)Nc2ncnn2C1c1ccc(C)cc1` (stereo not drawn), the concentration at half-maximal activity (AC50) under setting [1] is 5.01 µM [rising, partial curve].

In the case of `CCOC(=O)C1CCCN(c2ncnc3c2oc2ccccc23)C1` (stereo not drawn), the AC50 under setting [2] is 14.1 µM [falling, partial curve, poor fit].

With `COc1ccc(OC)c(S(=O)(=O)Nc2cc3c4c(c2)CCC(=O)N4CCC3)c1`, the half-maximal activity concentration (AC50) under setting [2] is 11.6 µM [falling, partial curve, poor fit].

Consider `COc1ccc(CCCC(=O)N/N=C/c2cccc(OC)c2O)cc1C`, for which the AC50 is, setting by setting: under setting [1], 6.51 µM [rising, single point]; under setting [2], 13 µM [falling, partial curve].

For `O=C(/C=C/c1cccc([N+](=O)[O-])c1)NCCN1C(=O)S/C(=C\c2cccnc2)C1=O`, the AC50 under setting [1] is 17.8 µM [falling, partial curve, poor fit].
